# Assay results published in the supplement of paper PMC6411743.
# ± gives the standard deviation of the averaged measurements. Only a part is listed here, and it is no random draw.
# Tests used:
# Assay in all cases: NP40-soluble protein abundance relative to vehicle (solubility fold change) (ratio); higher = more soluble protein in presence of ATP
# [1] = target: T1, H3BNT4 and related entries (UniProt Q99547)
# T1 sequence (whole entry): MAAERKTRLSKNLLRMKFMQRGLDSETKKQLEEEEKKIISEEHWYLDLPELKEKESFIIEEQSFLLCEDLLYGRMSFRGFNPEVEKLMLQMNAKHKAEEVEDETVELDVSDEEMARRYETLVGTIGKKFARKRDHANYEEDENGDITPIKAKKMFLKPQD
# Method in brief: (§1)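 Across three independent experiments, values are fold changes against the detergent-processed vehicle for each replicate, based on vsn-normalised intensities. The samples were Jurkat crude lysate treated with eight concentrations (0.1 to 10 mM) for 10 min at room temperature and then 3 min at 37 °C. Lysate was solubilised with 0.8% NP40 and benzonase, ultracentrifuged, and the supernatant analysed by TMT-labelled LC-MS/MS.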
# [2] = target: T2, H7BY55 and related entries (UniProt P08174)
# T2 sequence (whole entry): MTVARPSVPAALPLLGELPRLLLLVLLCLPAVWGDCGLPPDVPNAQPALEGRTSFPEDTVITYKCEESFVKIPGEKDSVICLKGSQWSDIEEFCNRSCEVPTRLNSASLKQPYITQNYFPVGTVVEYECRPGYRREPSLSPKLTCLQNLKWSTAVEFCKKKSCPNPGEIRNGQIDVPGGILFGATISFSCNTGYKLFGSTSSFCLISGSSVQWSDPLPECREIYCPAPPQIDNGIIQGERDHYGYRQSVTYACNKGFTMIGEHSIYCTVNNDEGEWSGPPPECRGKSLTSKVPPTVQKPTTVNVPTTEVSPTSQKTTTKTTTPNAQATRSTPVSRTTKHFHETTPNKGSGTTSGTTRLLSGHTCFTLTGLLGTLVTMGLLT
# Method in brief: as §1
# [3] = target: T3, H7C561 and related entries (UniProt Q15637)
# T3 sequence (whole entry): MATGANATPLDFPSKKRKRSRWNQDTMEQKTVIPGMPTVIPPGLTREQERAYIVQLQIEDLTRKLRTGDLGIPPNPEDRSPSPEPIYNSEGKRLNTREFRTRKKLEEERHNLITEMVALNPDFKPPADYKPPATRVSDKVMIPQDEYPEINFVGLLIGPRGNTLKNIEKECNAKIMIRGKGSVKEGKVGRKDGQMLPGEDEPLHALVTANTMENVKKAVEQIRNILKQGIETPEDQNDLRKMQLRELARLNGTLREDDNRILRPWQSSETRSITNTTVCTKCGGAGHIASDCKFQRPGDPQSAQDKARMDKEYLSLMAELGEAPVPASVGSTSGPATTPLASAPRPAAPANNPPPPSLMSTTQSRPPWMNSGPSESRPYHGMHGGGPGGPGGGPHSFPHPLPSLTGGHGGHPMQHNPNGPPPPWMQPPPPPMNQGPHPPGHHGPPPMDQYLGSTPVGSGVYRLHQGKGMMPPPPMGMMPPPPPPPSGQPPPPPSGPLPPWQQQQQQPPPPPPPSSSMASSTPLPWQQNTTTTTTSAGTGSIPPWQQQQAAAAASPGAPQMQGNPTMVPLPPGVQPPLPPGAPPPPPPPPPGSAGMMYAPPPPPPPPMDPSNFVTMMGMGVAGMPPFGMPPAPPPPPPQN
# Method in brief: as §1
# [4] = target: T4, J3KPD3 and related entries (UniProt Q9Y580)
# T4 sequence (whole entry): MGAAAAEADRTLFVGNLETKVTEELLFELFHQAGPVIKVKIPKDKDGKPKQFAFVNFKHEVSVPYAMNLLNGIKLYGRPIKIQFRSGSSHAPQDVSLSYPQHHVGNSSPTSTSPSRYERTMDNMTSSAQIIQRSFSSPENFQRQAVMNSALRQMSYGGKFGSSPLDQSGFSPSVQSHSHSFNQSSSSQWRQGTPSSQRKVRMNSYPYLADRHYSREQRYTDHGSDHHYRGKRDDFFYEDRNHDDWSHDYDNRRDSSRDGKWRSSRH
# Method in brief: as §1
# [5] = target: T5, J3KPT4 and related entries (UniProt Q9H4I3)
# T5 sequence (whole entry): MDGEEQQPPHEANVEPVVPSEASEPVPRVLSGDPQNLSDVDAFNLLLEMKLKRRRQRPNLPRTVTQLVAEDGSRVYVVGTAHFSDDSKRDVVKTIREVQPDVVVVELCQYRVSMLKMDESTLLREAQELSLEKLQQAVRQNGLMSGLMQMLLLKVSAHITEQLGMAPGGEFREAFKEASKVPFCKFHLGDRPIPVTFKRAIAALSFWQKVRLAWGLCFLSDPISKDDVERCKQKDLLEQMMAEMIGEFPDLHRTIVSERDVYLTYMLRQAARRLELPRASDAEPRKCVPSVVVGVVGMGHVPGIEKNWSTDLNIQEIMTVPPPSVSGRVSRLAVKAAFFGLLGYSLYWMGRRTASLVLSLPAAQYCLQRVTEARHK
# Method in brief: as §1
# [6] = target: T6, J3KSW2 and related entries (UniProt Q9UNA4)
# T6 sequence (whole entry): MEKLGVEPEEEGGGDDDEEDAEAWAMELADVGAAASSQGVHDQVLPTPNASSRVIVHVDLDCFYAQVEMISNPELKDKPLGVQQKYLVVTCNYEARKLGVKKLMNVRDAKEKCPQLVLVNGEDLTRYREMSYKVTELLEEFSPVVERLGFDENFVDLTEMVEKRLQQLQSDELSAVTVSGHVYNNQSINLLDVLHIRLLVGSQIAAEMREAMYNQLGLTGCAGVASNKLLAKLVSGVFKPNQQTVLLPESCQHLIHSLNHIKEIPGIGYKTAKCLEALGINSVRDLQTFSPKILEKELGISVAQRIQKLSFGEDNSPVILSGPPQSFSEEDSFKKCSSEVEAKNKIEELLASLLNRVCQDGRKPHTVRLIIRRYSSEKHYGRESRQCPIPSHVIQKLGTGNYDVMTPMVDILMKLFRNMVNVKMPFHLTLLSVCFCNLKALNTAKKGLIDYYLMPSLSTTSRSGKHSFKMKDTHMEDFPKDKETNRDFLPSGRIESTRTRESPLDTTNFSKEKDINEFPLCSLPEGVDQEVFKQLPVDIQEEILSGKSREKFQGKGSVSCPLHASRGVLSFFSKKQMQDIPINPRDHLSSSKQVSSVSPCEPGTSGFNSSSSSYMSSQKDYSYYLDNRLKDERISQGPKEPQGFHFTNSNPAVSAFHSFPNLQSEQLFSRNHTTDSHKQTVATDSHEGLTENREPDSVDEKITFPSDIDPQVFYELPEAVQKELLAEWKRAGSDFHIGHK
# Method in brief: as §1
# [7] = target: T7, J3KSZ8 and related entries (UniProt Q68DK7)
# T7 sequence (whole entry): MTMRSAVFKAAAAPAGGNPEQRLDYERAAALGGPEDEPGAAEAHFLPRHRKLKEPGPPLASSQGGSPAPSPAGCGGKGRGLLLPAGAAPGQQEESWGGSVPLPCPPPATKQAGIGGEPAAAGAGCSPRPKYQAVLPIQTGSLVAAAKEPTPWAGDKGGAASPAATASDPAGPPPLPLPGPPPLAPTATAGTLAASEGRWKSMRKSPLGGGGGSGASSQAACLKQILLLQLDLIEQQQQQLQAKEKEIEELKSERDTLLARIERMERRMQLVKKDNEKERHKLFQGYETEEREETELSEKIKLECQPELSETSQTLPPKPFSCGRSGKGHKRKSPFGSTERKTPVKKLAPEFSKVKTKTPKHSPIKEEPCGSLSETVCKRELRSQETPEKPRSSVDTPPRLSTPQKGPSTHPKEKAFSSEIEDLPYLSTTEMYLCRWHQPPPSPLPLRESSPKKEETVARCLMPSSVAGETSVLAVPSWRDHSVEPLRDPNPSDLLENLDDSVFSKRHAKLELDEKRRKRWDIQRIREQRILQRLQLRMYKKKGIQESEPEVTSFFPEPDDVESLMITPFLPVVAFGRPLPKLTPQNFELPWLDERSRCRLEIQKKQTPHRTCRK
# Method in brief: as §1
# [8] = target: T8, M0QYA8 and related entries (UniProt Q8IV63)
# T8 sequence (whole entry): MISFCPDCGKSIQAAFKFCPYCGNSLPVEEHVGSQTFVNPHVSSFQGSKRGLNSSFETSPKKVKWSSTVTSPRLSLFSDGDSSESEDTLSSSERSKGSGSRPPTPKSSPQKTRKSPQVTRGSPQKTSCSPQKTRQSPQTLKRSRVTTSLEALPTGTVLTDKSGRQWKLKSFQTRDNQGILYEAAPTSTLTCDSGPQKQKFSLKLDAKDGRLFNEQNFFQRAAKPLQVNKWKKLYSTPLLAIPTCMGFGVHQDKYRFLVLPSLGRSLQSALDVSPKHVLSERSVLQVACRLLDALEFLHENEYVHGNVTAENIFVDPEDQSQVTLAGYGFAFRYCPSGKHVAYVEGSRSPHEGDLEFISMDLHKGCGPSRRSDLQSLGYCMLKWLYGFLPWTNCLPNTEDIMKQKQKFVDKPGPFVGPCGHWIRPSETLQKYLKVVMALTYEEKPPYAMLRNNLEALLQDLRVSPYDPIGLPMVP
# Method in brief: as §1
structure (smiles),measurement,setting,value
Nc1ncnc2c1ncn2[C@@H]1O[C@H](COP(=O)(O)OP(=O)(O)OP(=O)(O)O)[C@@H](O)[C@H]1O [adenosine triphosphate],NP40-soluble protein abundance,[1]; concentration: 1mM,1.05 ± 0.058
same,NP40-soluble protein abundance,[1]; concentration: 2mM,1.04 ± 0.11
same,NP40-soluble protein abundance,[1]; concentration: 4mM,1.13 ± 0.025
same,NP40-soluble protein abundance,[1]; concentration: 6mM,1.23 ± 0.045
same,NP40-soluble protein abundance,[1]; concentration: 8mM,1.21 ± 0.081
same,NP40-soluble protein abundance,[1]; concentration: 10mM,1.22 ± 0.022
same,NP40-soluble protein abundance,[2]; concentration: 1mM,0.94 ± 0.042
same,NP40-soluble protein abundance,[2]; concentration: 2mM,0.964 ± 0.058
same,NP40-soluble protein abundance,[2]; concentration: 4mM,0.904 ± 0.051
same,NP40-soluble protein abundance,[2]; concentration: 6mM,0.949 ± 0.035
same,NP40-soluble protein abundance,[2]; concentration: 8mM,0.926 ± 0.062
same,NP40-soluble protein abundance,[2]; concentration: 10mM,0.92 ± 0.078
same,NP40-soluble protein abundance,[3]; concentration: 1mM,0.995 ± 0.068
same,NP40-soluble protein abundance,[3]; concentration: 2mM,0.9763 ± 0.0059
same,NP40-soluble protein abundance,[3]; concentration: 4mM,0.963 ± 0.034
same,NP40-soluble protein abundance,[3]; concentration: 6mM,1.02 ± 0.033
same,NP40-soluble protein abundance,[3]; concentration: 8mM,0.969 ± 0.026
same,NP40-soluble protein abundance,[3]; concentration: 10mM,0.947 ± 0.04
same,NP40-soluble protein abundance,[4]; concentration: 1mM,0.93 ± 0.044
same,NP40-soluble protein abundance,[4]; concentration: 2mM,0.903 ± 0.04
same,NP40-soluble protein abundance,[4]; concentration: 4mM,0.943 ± 0.023
same,NP40-soluble protein abundance,[4]; concentration: 6mM,0.958 ± 0.1
same,NP40-soluble protein abundance,[4]; concentration: 8mM,0.98 ± 0.049
same,NP40-soluble protein abundance,[4]; concentration: 10mM,1.03 ± 0.098
same,NP40-soluble protein abundance,[5]; concentration: 1mM,1.02 ± 0.078
same,NP40-soluble protein abundance,[5]; concentration: 2mM,0.971 ± 0.045
same,NP40-soluble protein abundance,[5]; concentration: 4mM,0.976 ± 0.043
same,NP40-soluble protein abundance,[5]; concentration: 6mM,0.948 ± 0.096
same,NP40-soluble protein abundance,[5]; concentration: 8mM,0.986 ± 0.042
same,NP40-soluble protein abundance,[5]; concentration: 10mM,0.997 ± 0.043
same,NP40-soluble protein abundance,[6]; concentration: 1mM,1.02 ± 0.1
same,NP40-soluble protein abundance,[6]; concentration: 2mM,0.948 ± 0.083
same,NP40-soluble protein abundance,[6]; concentration: 4mM,1.02 ± 0.15
same,NP40-soluble protein abundance,[6]; concentration: 6mM,0.995 ± 0.11
same,NP40-soluble protein abundance,[6]; concentration: 8mM,0.977 ± 0.15
same,NP40-soluble protein abundance,[6]; concentration: 10mM,0.957 ± 0.2
same,NP40-soluble protein abundance,[7]; concentration: 1mM,1.23 ± 0.18
same,NP40-soluble protein abundance,[7]; concentration: 2mM,1.27 ± 0.2
same,NP40-soluble protein abundance,[7]; concentration: 4mM,1.33 ± 0.12
same,NP40-soluble protein abundance,[7]; concentration: 6mM,1.39 ± 0.23
same,NP40-soluble protein abundance,[7]; concentration: 8mM,1.32 ± 0.12
same,NP40-soluble protein abundance,[7]; concentration: 10mM,1.38 ± 0.16
same,NP40-soluble protein abundance,[8]; concentration: 1mM,1.38 ± 0.086
same,NP40-soluble protein abundance,[8]; concentration: 2mM,1.44 ± 0.11
same,NP40-soluble protein abundance,[8]; concentration: 4mM,1.49 ± 0.15
same,NP40-soluble protein abundance,[8]; concentration: 6mM,1.49 ± 0.21
same,NP40-soluble protein abundance,[8]; concentration: 8mM,1.47 ± 0.21
same,NP40-soluble protein abundance,[8]; concentration: 10mM,1.55 ± 0.18

# Fetched one by one from the entries so far (3):
structure (smiles),measurement,setting,value
Nc1ncnc2c1ncn2[C@@H]1O[C@H](COP(=O)(O)OP(=O)(O)OP(=O)(O)O)[C@@H](O)[C@H]1O [adenosine triphosphate],NP40-soluble protein abundance,[6]; concentration: 1mM,1.02 ± 0.1
same,NP40-soluble protein abundance,[6]; concentration: 6mM,0.995 ± 0.11
same,NP40-soluble protein abundance,[8]; concentration: 6mM,1.49 ± 0.21
